PMC12429696 (International Journal of Molecular Sciences, 2025)
Square brackets hold non-standard residues; d marks the D form. * marks the point of attachment. Boc = CC(C)(C)OC(=O)*; OBn = c1ccc(CO*)cc1

Experiment: general procedure: solution-phase peptide synthesis; TBTU/NMM

Row | Substance | step yield (coupling step) | step yield (late stage modification step)
1 | Boc-Y[dA]F[dA]-OBn | 95% | 
2 | Boc2-Tyr-D-Ala-Phe-D-Ala-Tyr-Pro-Ser(Bzl)-NH2 | 95% | 
3 | TFA. H-Tyr-D-Ala-Phe-D-Ala-Tyr-Pro-Ser(Bzl)-NHMe |  | 92%
4 | Cyclo-[L-Lys(H-Tyr-D-Ala-Phe-D-Ala-Tyr-Pro-Ser)-L-Glu(L-Trp-NH2)] | 95% | 82%
